Source: PubChem BioAssay AID853 (Columbia University Molecular Screening Center, 2007)
Among all 47,000 compounds or so, about 200 (0.43%) were called active. Inconclusive means that the source gave no clear call. Such entries were picked first, then a sample of the others.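 Rule for the calls: active = inhibition of aggregate fluorescence above about 70%, also judged a hit by eye on the cell image (limit read from the data, passing the limit was not always enough); inconclusive = no rule stated for this call; inactive = not judged a hit on image review.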

test: clearance of mutant huntingtin inclusions, primary screen, imaging, HeLa Exon1htt(103Q)mCFP, confocal imaging (AID 853); conditions: aggregate imaging, at 1.5 µM, active compounds read high, zero = plate's median compound well;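 note: cells exposed to compound for three days before fixation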

Row | Compound | inhibition
1 | CC(Oc1ccccc1Br)C(=O)N1CCc2ccccc21 (centres undefined) | inactive: -16.1%
2 | CN(C)c1ccc(P(=O)(OCc2ccccc2)C(O)c2ccncc2)cc1 (centres undefined) | active: 74%
3 | COCc1nnc(NC(=O)c2ccc(NC(C)=O)cc2)s1 | active: 84.2%
4 | O=C(COc1ccc(F)cc1)Nc1nnc(-c2ccncc2)s1 | inconclusive: 79.6%
5 | O=C(O)C1CC(c2cccc(Br)c2)=NO1 (centres undefined) | inconclusive: 80.7%
6 | N#Cc1ccccc1CSc1nc(N2CCCCC2)nc(N2CCCCC2)n1 | inconclusive: 71.3%
7 | O=C(COc1ccccc1)NC(Cc1c[nH]c2ccccc12)C(=O)O (centres undefined) | active: 70.6%
8 | O=C(CSc1nnc(-c2ccccc2F)o1)OCc1ccccc1 | inconclusive: 72.7%
9 | COc1ccc(C(=O)NCC(=O)O)cc1 | inconclusive: 85.1%
10 | CC(=O)Nc1ccc(S(=O)(=O)Nc2nc3ccccc3nc2N2CCCC2)cc1 | inconclusive: 81.8%
11 | O=C(Nc1ccon1)c1cc2c(s1)CCCCCC2 | inconclusive: 78.8%
12 | COCCSc1ccccc1C(=O)Nc1cc(C)on1 | active: 74.8%
13 | S=C1NCCOCCOCCOCCOCCNC(=S)NCCOCCOCCOCCOCCN1 | active: 77.7%
14 | COc1ccc(C2C(C#N)C(C#N)N3CCCN23)cc1 (centres undefined) | inconclusive: 70.3%
15 | Cc1nn(-c2ccccc2)c(C)c1NS(=O)(=O)c1ccccc1 | inactive: -163%
16 | O=S(=O)(CCN1CCN(C(c2ccccc2)c2ccccc2)CC1)C(F)(F)F | inactive: -11.4%
17 | NC(=O)c1cc(-c2ccccc2)nc(N2CCOCC2)n1 | inactive: -0.6%
18 | O=C(Nc1ccccc1)N1CCCC(c2nc(-c3ccc(F)cc3)no2)C1 (centres undefined) | inactive: 11.3%
19 | O=C(O)Cn1c(CC(=O)N2CCCC2)nc2ccccc21 | inactive: -34.3%
20 | O=C(CCC1CCCC1)Nc1ccon1 | inconclusive: 85.6%
21 | CC(C)(C)c1ccc(C2(C)NC(=O)N(CC(=O)Nc3ccc4c(c3)OCO4)C2=O)cc1 (centres undefined) | inactive: -22.8%
22 | CC1CN(CC(=O)c2c(N)n(Cc3ccccc3)c(=O)n(C)c2=O)CC(C)O1 (centres undefined) | inconclusive: 83%
23 | COc1ccc(OCC(=O)Nc2ccc(S(=O)(=O)Nc3cc(C)nc(C)n3)cc2)cc1 | inconclusive: 82.7%
24 | CC(=O)C1=C(NC(=O)c2ccc(F)cc2)CC2C1C2(C)C (centres undefined) | inactive: -9.7%
25 | C/C(=N\O)c1ccc2[nH]ccc2c1 | inactive: 57.5%

For reference, part of the list above:
Row | Compound | inhibition
18 | O=C(Nc1ccccc1)N1CCCC(c2nc(-c3ccc(F)cc3)no2)C1 (centres undefined) | inactive: 11.3%
19 | O=C(O)Cn1c(CC(=O)N2CCCC2)nc2ccccc21 | inactive: -34.3%

Next part.

Row | Compound | inhibition
26 | CCOC(=O)CSc1nnc(C)n1N | inactive: 35%
27 | O=C(NCc1cccs1)c1cc2c(s1)-c1ccccc1OC2 | inactive: -33.5%
28 | N#Cc1c(NC(=O)CN2CCOCC2)oc(-c2ccccc2)c1-c1ccccc1 | inconclusive: 77%
29 | CCOC(=O)COc1ccc(S(=O)(=O)N2CCN(c3ccccc3F)CC2)cc1 | active: 82%
30 | O=C(O)CCCC(=O)Nc1ccccc1Br | inactive: 32.1%
31 | Cc1oc2c(c1C(=O)c1ccccc1)C(=O)C(=O)c1ccccc1-2 | inconclusive: 87.2%
32 | O=C(Nc1ccccc1)N1CCCc2ccccc21 | active: 82.7%
33 | COCCN(Cc1ccccc1)P(=O)(O)c1ccccc1OCC(=O)O | inconclusive: 79.5%
34 | COCCn1c(C2CCCCC2)nc2sc3ccccc3c(=O)c2c1=O | inactive: -32.1%
35 | COc1ccc(Cn2nnnc2C(c2cccnc2)N2CCN(c3ccc(O)cc3)CC2)cc1 (centres undefined) | inconclusive: 92.2%
36 | COc1ccc(C(=O)CSc2nnc(-c3ccco3)n2C)cc1 | inconclusive: 80.9%
37 | CC(C)(C)c1cc(NC(=O)c2cccnc2)no1 | active: 78.2%
38 | COc1cc(NC(=O)Nc2cccc(C(C)=O)c2)cc(OC)c1OC | active: 75.2%
39 | CCOC(=O)/C(C#N)=C1/SC(CCO)C(=O)N1c1ccccc1 (centres undefined) | inactive: 31%
40 | C=CCNC(=O)C(C)Sc1ccc(Cl)cc1 (centres undefined) | inconclusive: 81.3%
41 | COc1ccc(N(CC(=O)O)S(=O)(=O)c2cccnc2)cc1 | active: 71.2%
42 | O=C(C(c1ccccc1)c1ccccc1)N1CCN(Cc2ccco2)CC1 | inconclusive: 86.2%
43 | Cc1ccc(C(=O)NC2CCCCCC2)o1 | inconclusive: 75.2%
44 | Cc1ccn2c(NC(=O)c3ccco3)c(-c3ccccc3)nc2c1 | inconclusive: 97%
45 | O=C(c1cc(-c2cccnc2)nc2ccc(Br)cc12)N1CCC2(CC1)OCCO2 | inactive: 40.1%
46 | CCOc1ccc(NC(=O)N(C2CCCCC2)C(C)c2ccncc2)cc1 (centres undefined) | inconclusive: 79%
47 | CCCOC(=O)CSc1nc(N)c(C#N)c(-c2ccco2)c1C#N | inactive: -39.1%
48 | Cn1c(=O)[nH]c(=O)c2c1nc(Br)n2CCC(=O)c1ccccc1 | inactive: -38.3%
49 | CCOC(=O)C1CCCN(S(=O)(=O)c2cc(OCC(N)=O)c(C)cc2Cl)C1 (centres undefined) | active: 71.4%
50 | O=C(/C=C/N1CCOCC1)c1coc2ccccc12 | inconclusive: 79.6%

Row | Compound | inhibition
51 | CC(=O)COc1ccc2c(C)c(C)c(=O)oc2c1 | inactive: -9.8%
52 | O=C(Nc1ccccc1-c1ccccc1)NC1CCN(CC(=O)N2CCOCC2)CC1 | inactive: 0.3%
53 | Cc1cccc(OCC(=O)Nc2cc(C)ccc2O)c1 | active: 84.8%
54 | CCOC(=O)CNc1c(-c2ccccc2)nc2ccc(Cl)cn12 | inconclusive: 79.7%
55 | COc1cc(SC)ccc1C(=O)Nc1ccon1 | active: 73.3%
56 | COc1ccc(CCNC(=O)C2CC2)cc1OC | inconclusive: 76.2%
57 | O=C(c1cccnc1)N1CCN(C(=O)c2cccs2)CC1 | inconclusive: 93.6%
58 | CCC(=O)NC(Nc1ncc(C)s1)(C(=O)OC)C(F)(F)F (centres undefined) | active: 70.2%
59 | CCOc1ccccc1NC(=O)C1CCN(c2ccc(S(=O)(=O)N3CCCC3)cc2)CC1 | active: 71.9%
60 | O=C(CN1CCCCC1)Nc1cccc(Br)c1 | inconclusive: 70.9%
61 | CC1CCN(C2=NC(=O)/C(=C/c3cn(-c4ccccc4)nc3-c3cccc(S(=O)(=O)N(C)C)c3)S2)CC1 | inactive: 44.2%
62 | CCc1ccccc1N(CC(=O)NCCSCc1ccco1)S(C)(=O)=O | inconclusive: 74.4%
63 | O=C(CN(Cc1ccccc1)S(=O)(=O)c1ccc(F)cc1)NCCC1=CCCCC1 | active: 76%
64 | O=C1C2=C(c3ccccc31)[N+](=O)C1CCCCC1N2[O-] (centres undefined) | inconclusive: 78.7%
65 | CC(=O)N1CN(Cc2ccccn2)Cc2c1sc1c2CCCC1 | active: 82.8%
66 | COc1ccc(C2C(C(=O)Nc3cc(C)on3)c3ccccc3C(=O)N2C)cc1OC (centres undefined) | inactive: -14.5%
67 | COc1ccc(Nc2ccnc3ccccc23)cc1 | active: 90.6%
68 | CCOC(=O)c1[nH]c2ccc(C)cc2c1N=CN(CC)CC | inconclusive: 91.3%
69 | COc1c(C)cc(Br)cc1C(=O)O | inactive: 20.9%
70 | CC(C)C(=O)Nc1ccc(N2CCN(S(C)(=O)=O)CC2)cc1 | inconclusive: 77.5%
71 | Nc1nnc(-c2ccccc2)c(-c2ccccc2)n1 | inactive: 30.4%
72 | CC(C)CCn1cnc2c1c(=O)n(C)c(=O)n2C | active: 73%
73 | CCOc1ccc(Nc2oc(-c3cccc(Cl)c3)nc2C#N)cc1 | inactive: 13%
74 | Cc1ccnn2c(-c3ccccc3)c3c(=O)n(C)c(=O)n(C)c3c12 | inactive: -18.1%
75 | C/C(N)=C(/C#N)C(=O)COC(=O)CCC1CCCC1 | inactive: 1.4%

Row | Compound | inhibition
76 | CC1Cc2cc(/C(O)=C3\C(=O)C(=O)N(CCN(C)C)C3c3ccccc3F)ccc2O1 (centres undefined) | active: 80.4%
77 | CCOC(=O)COn1c(=O)c(-c2ccc(OC)c(OC)c2)[n+]([O-])c2ccccc21 | active: 74.3%
78 | Cc1cc(O)ccc1C1(c2ccc(O)cc2C)OC(=O)c2ccccc21 | active: 70.3%
79 | COc1ccc(C(=O)NCC(=O)OC2CCCCC2=O)cc1 (centres undefined) | inconclusive: 74.2%
80 | Cc1ccccc1-n1ncc2c(SCC(=O)NCc3cccs3)ncnc21 | inactive: 31.9%
81 | CC(Cc1c[nH]c2ccccc12)NC(=O)C1CCCNC1=O (centres undefined) | active: 87%
82 | COc1cc2c(cc1OC)C(C(=O)Nc1ccc3c(c1)OCCO3)C(c1cccnc1)N(C)C2=O (centres undefined) | inactive: 8.3%
83 | Cc1cccn2c(=O)c3cc(C(N)=S)c(=N)n(CCCOC(C)C)c3nc12 | inactive: -45.1%
84 | CCN1CCN(S(=O)(=O)c2cc(OCC(=O)NC3CCCCC3)c(C)cc2Cl)CC1 | inconclusive: 75.6%
85 | CCc1ccc(-c2cn(-c3nc(C)cc(C)n3)c(=N)o2)cc1 | inactive: 38.3%
86 | Cc1c(NC(=O)c2ccccc2)c(=O)n(-c2ccccc2)n1C | active: 77.7%
87 | O=C(NCc1ccco1)c1cnn2c(C(F)(F)F)cc(-c3ccccc3)nc12 | inconclusive: 73.4%
88 | CCN1C(=O)CC(N2CCC(Nc3ccc(OC)cc3)CC2)C1=O (centres undefined) | inactive: -37.9%
89 | COc1ccc(OC)c(S(=O)(=O)Nc2ccc(O)c(Sc3ncn[nH]3)c2)c1 | active: 86.2%
90 | CCOc1ccc(Nc2nc(C)cc(C)c2C#N)cc1 | active: 77%
91 | CS(=O)(=O)N(Cc1ccccc1)c1ccc(C(=O)NCc2ccccc2)cc1 | inconclusive: 71.2%
92 | CCc1nc(NCc2ccco2)c2oc3ccccc3c2n1 | inactive: -13.1%
93 | COc1ccc(-c2c3c([nH]c(=S)c2C#N)CCC3)cc1 | active: 70.7%
94 | CC(C)Cn1c(=O)c2ccccc2c2ccccc2c1=O | inconclusive: 92.4%
95 | Cc1ccc2c(c1)NC(=O)C(CC(=O)N(C)Cc1ccccc1)O2 (centres undefined) | inconclusive: 70.5%
96 | Oc1ccc(Br)cc1-c1nc2cnccn2c1NC1CCCCC1 | inconclusive: 82.4%
97 | COc1ccc(CN2CCN(C)CC2)cc1OCc1ccccc1 | active: 74.1%
98 | COC(=O)c1ccc2ccn(CC(=O)NC3CCCCC3)c2c1 | inactive: -12.9%
99 | COC(=O)c1cccc(S(=O)(=O)N2CCC(C)CC2)c1 | active: 71.4%

Entries above with a COOH group:
Row | Compound | inhibition
5 | O=C(O)C1CC(c2cccc(Br)c2)=NO1 (centres undefined) | inconclusive: 80.7%
7 | O=C(COc1ccccc1)NC(Cc1c[nH]c2ccccc12)C(=O)O (centres undefined) | active: 70.6%
9 | COc1ccc(C(=O)NCC(=O)O)cc1 | inconclusive: 85.1%
19 | O=C(O)Cn1c(CC(=O)N2CCCC2)nc2ccccc21 | inactive: -34.3%
30 | O=C(O)CCCC(=O)Nc1ccccc1Br | inactive: 32.1%
33 | COCCN(Cc1ccccc1)P(=O)(O)c1ccccc1OCC(=O)O | inconclusive: 79.5%
41 | COc1ccc(N(CC(=O)O)S(=O)(=O)c2cccnc2)cc1 | active: 71.2%
69 | COc1c(C)cc(Br)cc1C(=O)O | inactive: 20.9%
